Data taken from publication PMC11176075.
For at least one entry, the source does not settle the construct or the ends of the probe. For some of these results: A weaker result is weaker than the reference pair of the same experiment. At least one verdict rests on a figure or table, not on a statement of the authors.

Key:
Experiment in all cases: fluorescence anisotropy
[1] = tested on: PRC2 core complex, EZH2 mt2 (Homo sapiens); conditions: FA: 50 mM Tris-HCl pH 7.5, 200 mM KCl (G4 24, Supp. Fig. 1d) or 100 mM KCl (RNA panel), 2.5 mM MgCl2, 0.1 mM ZnCl2, 2 mM 2-ME, 0.1 mg/ml BSA, 0.05% NP-40, recombinant protein, protein details: N-terminal His6-MBP, PreScission-cleavable
[2] = tested on: PRC2 core complex, EZH2 mt1 (Homo sapiens); conditions: FA: 50 mM Tris-HCl pH 7.5, 200 mM KCl (G4 24, Supp. Fig. 1d) or 100 mM KCl (RNA panel), 2.5 mM MgCl2, 0.1 mM ZnCl2, 2 mM 2-ME, 0.1 mg/ml BSA, 0.05% NP-40, recombinant protein, protein details: N-terminal His6-MBP, PreScission-cleavable
[3] = tested on: PRC2 core complex, EZH2 wild type (Homo sapiens); conditions: 200 mM KCl; FA: 50 mM Tris-HCl pH 7.5, 200 mM KCl (G4 24, Supp. Fig. 1d) or 100 mM KCl (RNA panel), 2.5 mM MgCl2, 0.1 mM ZnCl2, 2 mM 2-ME, 0.1 mg/ml BSA, 0.05% NP-40; recombinant protein; protein details: N-terminal His6-MBP, PreScission-cleavable; label: 3' fluorescein (6-FAM)

| Sequence | binding result ([1]; 100 mM KCl, label: 3' 6-FAM) | binding result ([2]; 100 mM KCl, label: 3' 6-FAM) | binding result ([1]; 200 mM KCl, milder defect than mt1, label: 3' fluorescein (6-FAM)) | binding result ([2]; 200 mM KCl, stronger defect than mt2, label: 3' fluorescein (6-FAM)) | binding result [3] |
| --- | --- | --- | --- | --- | --- |
| GGGAGCCCAGAGUUACAGACGGCGGCGAGAGGAAGGAGGGGCGU [HOTAIR RNA] | binds more weakly | binds more weakly |  |  |  |
| UGCCCAUCUACACCUCACGAGGGCA [MEG3 RNA] | binds more weakly | binds more weakly |  |  |  |
| UUAGGGUUAGGGUUAGGGUUAGGG [G4 24 RNA] |  |  | binds more weakly | binds more weakly | binds |
